Measured values taken from the supplement of paper PMC11732987, “Enantioselective OTUD7B fragment discovery through chemoproteomics screening and high-throughput optimisation” (Communications Chemistry, 2025).
The other results are listed elsewhere or left out. The data scatter; read single values as rough.

Chains of the proteins cited; added tags and fusions are not shown. Lines headed by an entry give the natural chain unless they say otherwise; changes in a name come on top.
UniProt Q8WWI1: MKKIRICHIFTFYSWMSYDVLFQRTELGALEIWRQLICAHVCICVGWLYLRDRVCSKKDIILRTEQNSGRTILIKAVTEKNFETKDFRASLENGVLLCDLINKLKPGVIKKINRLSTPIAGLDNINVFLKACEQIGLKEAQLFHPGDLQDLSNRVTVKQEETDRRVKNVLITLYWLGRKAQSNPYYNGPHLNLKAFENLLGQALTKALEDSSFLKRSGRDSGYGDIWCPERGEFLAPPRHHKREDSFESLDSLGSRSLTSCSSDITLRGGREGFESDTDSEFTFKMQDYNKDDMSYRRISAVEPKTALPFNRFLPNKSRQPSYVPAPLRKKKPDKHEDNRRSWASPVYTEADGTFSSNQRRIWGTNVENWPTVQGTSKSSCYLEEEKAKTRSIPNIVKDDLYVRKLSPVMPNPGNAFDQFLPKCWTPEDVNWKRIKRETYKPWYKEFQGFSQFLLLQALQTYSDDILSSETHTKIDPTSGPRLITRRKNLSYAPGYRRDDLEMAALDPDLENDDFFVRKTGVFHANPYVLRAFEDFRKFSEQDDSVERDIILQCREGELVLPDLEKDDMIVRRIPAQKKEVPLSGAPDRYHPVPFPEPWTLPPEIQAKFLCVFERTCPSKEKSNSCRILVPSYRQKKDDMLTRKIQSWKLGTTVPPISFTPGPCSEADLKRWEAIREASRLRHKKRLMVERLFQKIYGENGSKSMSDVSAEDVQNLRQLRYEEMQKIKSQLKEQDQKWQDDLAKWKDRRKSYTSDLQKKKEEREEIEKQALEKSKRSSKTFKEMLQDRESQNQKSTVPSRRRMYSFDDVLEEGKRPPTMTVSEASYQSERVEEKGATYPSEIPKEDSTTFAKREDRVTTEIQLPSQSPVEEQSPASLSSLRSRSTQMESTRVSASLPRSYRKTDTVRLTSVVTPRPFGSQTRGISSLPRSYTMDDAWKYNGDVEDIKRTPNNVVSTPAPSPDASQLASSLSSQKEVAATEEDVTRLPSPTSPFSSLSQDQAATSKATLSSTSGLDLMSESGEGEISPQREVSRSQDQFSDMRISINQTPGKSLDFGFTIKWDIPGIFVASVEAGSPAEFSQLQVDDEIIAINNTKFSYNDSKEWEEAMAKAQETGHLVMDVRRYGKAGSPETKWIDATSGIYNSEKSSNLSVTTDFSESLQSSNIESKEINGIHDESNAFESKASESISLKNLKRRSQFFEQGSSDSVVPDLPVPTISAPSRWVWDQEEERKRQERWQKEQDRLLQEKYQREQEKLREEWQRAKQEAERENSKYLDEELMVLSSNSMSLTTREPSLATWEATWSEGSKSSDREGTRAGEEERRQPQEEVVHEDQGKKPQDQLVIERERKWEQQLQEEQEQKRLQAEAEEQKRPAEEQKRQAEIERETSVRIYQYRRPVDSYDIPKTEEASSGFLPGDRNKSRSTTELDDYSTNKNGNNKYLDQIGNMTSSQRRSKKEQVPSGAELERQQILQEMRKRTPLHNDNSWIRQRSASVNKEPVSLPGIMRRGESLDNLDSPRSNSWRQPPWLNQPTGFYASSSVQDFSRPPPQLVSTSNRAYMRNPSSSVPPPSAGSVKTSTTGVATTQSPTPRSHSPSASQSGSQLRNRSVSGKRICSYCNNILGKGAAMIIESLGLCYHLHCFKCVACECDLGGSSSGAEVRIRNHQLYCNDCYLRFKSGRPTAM
UniProt Q8NEZ4, whole entry, looked up: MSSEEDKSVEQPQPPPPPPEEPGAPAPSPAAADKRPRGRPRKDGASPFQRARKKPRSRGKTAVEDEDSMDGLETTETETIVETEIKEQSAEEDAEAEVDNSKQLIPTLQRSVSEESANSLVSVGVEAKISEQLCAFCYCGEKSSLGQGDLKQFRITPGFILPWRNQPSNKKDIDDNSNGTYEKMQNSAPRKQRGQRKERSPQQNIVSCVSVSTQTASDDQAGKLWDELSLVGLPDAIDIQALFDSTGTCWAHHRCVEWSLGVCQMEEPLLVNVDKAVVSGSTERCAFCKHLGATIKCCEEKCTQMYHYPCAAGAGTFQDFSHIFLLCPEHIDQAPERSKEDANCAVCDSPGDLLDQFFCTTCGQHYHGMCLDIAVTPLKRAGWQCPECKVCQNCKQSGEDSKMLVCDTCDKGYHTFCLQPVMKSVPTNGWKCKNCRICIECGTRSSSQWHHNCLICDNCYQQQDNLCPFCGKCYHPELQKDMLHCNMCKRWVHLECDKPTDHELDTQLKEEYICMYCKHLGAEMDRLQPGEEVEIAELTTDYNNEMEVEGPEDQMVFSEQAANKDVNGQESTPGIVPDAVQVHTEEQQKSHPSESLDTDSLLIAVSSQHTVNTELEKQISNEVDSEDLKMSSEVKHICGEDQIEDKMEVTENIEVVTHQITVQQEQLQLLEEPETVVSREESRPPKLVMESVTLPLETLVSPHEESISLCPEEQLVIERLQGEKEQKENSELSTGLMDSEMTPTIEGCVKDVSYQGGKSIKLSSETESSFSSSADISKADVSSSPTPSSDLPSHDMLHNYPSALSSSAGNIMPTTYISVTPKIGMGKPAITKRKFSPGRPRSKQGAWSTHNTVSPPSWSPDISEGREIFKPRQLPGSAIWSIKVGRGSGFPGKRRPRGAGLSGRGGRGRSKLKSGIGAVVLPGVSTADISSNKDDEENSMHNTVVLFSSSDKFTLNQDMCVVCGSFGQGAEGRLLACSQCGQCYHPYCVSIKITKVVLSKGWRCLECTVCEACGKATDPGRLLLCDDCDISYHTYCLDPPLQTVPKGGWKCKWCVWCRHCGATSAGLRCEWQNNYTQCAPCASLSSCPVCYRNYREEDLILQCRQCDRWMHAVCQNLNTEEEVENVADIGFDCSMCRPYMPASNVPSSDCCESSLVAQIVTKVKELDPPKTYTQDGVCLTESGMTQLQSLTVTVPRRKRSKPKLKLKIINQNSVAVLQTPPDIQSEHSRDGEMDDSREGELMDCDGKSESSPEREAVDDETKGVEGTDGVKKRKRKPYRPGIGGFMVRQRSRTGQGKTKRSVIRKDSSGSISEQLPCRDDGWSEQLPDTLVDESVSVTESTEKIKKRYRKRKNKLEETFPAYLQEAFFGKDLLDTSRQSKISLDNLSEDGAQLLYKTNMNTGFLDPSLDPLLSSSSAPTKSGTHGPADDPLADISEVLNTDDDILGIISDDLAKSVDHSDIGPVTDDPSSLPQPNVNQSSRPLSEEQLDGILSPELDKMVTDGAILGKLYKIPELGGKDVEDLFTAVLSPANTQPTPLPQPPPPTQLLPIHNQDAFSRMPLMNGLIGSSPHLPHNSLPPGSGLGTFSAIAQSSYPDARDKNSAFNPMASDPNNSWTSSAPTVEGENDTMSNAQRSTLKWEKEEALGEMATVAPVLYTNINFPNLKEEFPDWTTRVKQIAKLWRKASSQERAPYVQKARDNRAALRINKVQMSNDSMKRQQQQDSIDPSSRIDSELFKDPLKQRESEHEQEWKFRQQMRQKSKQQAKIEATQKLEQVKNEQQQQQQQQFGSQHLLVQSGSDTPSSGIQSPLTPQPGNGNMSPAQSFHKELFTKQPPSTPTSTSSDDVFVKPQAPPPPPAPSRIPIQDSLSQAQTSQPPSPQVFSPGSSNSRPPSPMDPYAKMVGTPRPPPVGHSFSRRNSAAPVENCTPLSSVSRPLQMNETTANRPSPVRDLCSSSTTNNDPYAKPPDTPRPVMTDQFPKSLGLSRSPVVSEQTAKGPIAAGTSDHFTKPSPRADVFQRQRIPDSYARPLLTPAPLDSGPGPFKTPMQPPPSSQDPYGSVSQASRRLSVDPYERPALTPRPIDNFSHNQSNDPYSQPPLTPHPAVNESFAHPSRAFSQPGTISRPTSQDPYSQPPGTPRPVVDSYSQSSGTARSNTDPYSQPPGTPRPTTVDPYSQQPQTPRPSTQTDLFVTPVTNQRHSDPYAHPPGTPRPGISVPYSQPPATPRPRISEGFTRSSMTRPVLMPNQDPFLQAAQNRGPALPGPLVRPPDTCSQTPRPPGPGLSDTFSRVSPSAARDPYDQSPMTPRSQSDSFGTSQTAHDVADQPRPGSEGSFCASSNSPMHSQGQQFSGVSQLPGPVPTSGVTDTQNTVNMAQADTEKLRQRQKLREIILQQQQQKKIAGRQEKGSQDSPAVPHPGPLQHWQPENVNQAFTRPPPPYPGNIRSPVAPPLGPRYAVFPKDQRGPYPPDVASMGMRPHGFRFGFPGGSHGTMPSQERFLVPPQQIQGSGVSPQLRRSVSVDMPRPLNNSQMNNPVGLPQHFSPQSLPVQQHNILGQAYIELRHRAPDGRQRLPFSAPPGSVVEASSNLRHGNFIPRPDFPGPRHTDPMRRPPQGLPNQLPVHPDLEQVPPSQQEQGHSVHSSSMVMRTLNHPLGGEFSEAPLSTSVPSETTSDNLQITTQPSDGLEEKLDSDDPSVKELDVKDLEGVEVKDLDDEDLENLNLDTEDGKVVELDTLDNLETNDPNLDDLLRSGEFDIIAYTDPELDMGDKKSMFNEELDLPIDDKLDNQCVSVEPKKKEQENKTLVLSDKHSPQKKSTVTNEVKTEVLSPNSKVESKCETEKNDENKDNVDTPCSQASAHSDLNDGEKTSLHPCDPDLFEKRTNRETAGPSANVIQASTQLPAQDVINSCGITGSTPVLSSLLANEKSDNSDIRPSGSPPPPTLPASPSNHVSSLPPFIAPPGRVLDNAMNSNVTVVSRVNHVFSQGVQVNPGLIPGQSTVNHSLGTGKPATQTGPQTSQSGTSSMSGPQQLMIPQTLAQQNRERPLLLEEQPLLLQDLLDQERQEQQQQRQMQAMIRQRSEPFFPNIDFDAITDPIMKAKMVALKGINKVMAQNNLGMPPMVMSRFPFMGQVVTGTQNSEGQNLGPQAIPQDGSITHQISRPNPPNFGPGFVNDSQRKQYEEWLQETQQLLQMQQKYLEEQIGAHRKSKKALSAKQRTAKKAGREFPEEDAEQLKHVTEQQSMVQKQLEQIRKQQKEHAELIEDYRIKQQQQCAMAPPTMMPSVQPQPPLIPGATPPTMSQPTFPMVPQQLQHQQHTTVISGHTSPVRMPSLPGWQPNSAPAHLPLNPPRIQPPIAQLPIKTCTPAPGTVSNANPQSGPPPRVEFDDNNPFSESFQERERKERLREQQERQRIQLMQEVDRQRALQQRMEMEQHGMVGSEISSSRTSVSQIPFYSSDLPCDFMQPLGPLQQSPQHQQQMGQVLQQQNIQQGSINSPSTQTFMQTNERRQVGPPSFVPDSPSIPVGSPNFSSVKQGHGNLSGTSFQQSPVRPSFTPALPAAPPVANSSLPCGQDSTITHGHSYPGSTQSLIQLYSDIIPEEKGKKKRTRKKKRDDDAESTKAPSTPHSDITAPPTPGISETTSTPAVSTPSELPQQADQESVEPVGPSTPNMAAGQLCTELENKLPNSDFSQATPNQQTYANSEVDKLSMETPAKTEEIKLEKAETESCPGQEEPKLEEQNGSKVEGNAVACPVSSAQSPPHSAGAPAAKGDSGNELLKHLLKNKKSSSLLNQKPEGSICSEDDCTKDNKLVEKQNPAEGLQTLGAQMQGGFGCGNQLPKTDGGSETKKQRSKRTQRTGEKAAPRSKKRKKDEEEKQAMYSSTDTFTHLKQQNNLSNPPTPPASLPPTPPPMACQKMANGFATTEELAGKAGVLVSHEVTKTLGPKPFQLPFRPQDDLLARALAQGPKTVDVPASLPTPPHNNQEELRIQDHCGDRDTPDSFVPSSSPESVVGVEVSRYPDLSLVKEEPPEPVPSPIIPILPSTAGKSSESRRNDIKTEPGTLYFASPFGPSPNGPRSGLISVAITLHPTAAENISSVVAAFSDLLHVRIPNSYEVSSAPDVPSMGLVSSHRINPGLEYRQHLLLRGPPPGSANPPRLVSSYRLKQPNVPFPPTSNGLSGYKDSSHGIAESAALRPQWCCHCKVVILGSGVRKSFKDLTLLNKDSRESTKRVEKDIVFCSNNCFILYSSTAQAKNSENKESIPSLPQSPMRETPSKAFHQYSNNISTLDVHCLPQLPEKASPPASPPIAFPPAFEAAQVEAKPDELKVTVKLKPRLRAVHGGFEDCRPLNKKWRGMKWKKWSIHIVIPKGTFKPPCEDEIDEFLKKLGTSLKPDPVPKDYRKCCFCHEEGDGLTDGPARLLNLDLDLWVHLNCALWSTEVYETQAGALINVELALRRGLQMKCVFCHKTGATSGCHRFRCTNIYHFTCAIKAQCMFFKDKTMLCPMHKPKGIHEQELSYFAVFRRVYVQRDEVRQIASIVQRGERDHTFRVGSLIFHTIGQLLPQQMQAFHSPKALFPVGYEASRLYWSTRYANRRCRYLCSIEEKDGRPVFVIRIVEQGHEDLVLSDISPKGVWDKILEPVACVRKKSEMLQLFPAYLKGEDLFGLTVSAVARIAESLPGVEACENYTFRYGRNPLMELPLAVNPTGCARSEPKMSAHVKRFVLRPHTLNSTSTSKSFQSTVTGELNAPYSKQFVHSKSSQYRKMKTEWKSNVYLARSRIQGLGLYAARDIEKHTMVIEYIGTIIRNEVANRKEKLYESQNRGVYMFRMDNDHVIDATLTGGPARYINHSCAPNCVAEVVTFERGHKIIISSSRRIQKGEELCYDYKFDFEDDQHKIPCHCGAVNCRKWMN

compound: ClCC(=O)N[C@H]1CCCc2ccccc12; experiment: log2 mean competition ratio of IA-DTB cysteine labelling (DMSO/compound) (log2 ratio); higher = stronger cysteine engagement by compound; conditions: 50 µM; treatment time: 4 h; cell line lysate: HEK293T
Method: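 IA-DTB competitive cysteine chemoproteomics in HEK293T RIPA lysate. Lysates were treated with compound 29 or 30 at 50 or 200 µM for 4 h, then IA-DTB (500 µM, 1 h), trypsin-digested, NeutrAvidin-enriched and analysed by diaPASEF. Competition ratio = intensity DMSO / intensity compound (n=4 treated, n=64 DMSO); binding: mean log2 CR ≥ 1 and p ≤ 0.05 plus QC filters. Target is the cysteine site.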

Target	log2 mean competition ratio
LIMA1 C316 (UniProt Q9UHB6)	-0.0417
KMT2B C2540 (UniProt Q9UMN6)	0.978
LRPPRC C927	-0.184
KYAT3 C337 (UniProt Q6YP21)	-0.0508
LARP4B C654 (UniProt Q92615)	0.172
LMO7 C98 (UniProt Q8WWI1)	0.0571
KIF7 C409	0.134
LAP3 C445 (UniProt P28838)	-0.189
LARS1 C248	-0.106
LLPH C64 (UniProt Q9BRT6)	-0.0987
LONRF2 C258 (UniProt Q1L5Z9)	-0.251
KMT2C C4643 (UniProt Q8NEZ4)	0.327
LIG1 C846 (UniProt P18858)	-0.0208
LAS1L C316 (UniProt Q9Y4W2)	0.0503
LIG3 C336 (UniProt P49916)	0.229
LRFN1 C651 (UniProt Q9P244)	0.249
LARS1 C546	0.231
LNPK C149 (UniProt Q9C0E8)	-0.852
KNTC1 C390 (UniProt P50748)	-0.385
LRCH2 C265	0.229

same assay, conditions: 200 µM; treatment time: 4 h; cell line lysate: HEK293T

Target	log2 mean competition ratio
LIMA1 C316 (UniProt Q9UHB6)	-0.489
KMT2B C2540 (UniProt Q9UMN6)	-0.127
LRPPRC C927	0.0836
KYAT3 C337 (UniProt Q6YP21)	-0.11
LARP4B C654 (UniProt Q92615)	0.155
LMO7 C98 (UniProt Q8WWI1)	-0.173
KIF7 C409	0.621
LAP3 C445 (UniProt P28838)	0.24
LARS1 C248	-0.0412
LLPH C64 (UniProt Q9BRT6)	0.174
LONRF2 C258 (UniProt Q1L5Z9)	-0.0164
KMT2C C4643 (UniProt Q8NEZ4)	-0.128
LIG1 C846 (UniProt P18858)	-0.328
LAS1L C316 (UniProt Q9Y4W2)	0.272
LIG3 C336 (UniProt P49916)	0.0724
LRFN1 C651 (UniProt Q9P244)	-0.24
LARS1 C546	0.351
LNPK C149 (UniProt Q9C0E8)	-0.138
KNTC1 C390 (UniProt P50748)	-0.195
LRCH2 C265	-0.169
